In PubChem BioAssay AID540276 (National Center for Advancing Translational Sciences (NCATS), 2011):
The whole screen tested about 300,000 compounds, of which about 5,400 (1.8%) were called active. Entries that show only a call come without a potency. Inconclusive results, whose numbers are uncertain, are shown with a selection of clear calls. Calls follow the shape of the full dose curve; tested in HEK293 cells. Potencies beside an inconclusive call are fits to weak or partial responses and may not hold up.
Potency is read from the fitted curve at half-maximal effect.

Experiment: qHTS for inhibitors of binding or entry into cells for Marburg Virus
Details: Marburg virus pseudotyped entry inhibition, cell reporter; series mostly up to 37.8 µM
In the case of `O=C(CSc1cccc[n+]1[O-])N1CCCCCC1`, the Potency is reported as “inactive”.
In the case of `O=C(CSc1nnnn1-c1ccc2c(c1)OCO2)NCc1cccs1`, the Potency is reported as “inactive”.
With `CCc1nnc(NC(=O)CSc2nnc(-c3cccnc3)n2CCc2ccccc2)s1` the Potency was “inactive”.
With `O=C(OCC(=O)N1CCc2ccccc21)C1=COCCO1` the Potency was inconclusive: 0.651 µM [activator, full curve].
For `NC1=NC(=O)NC1(c1ccccc1)c1ccccc1`, the Potency was “inactive”.
In the case of `O=C(Nc1ccc(Cl)cc1)c1ccc(-c2ccccn2)s1`, the Potency is reported as inconclusive: 6.31 µM [activator, single point].
For `CCN(CC(N)=O)S(=O)(=O)c1ccc(Br)cc1`, the Potency was inconclusive: 20.6 µM [activator, partial curve, poor fit].
For `COC(=O)C1=C(N)Oc2cc(C)n(C)c(=O)c2C1c1ccc(Cl)cc1` (centres undefined), the Potency was “inactive”.
In the case of `Cc1cc(F)ccc1NC(=O)CCS(=O)(=O)c1cccc2nsnc12`, the Potency is reported as “inactive”.
With `CCOc1nc(-c2ccc(OC)cc2)ccc1-c1noc(-c2ccncc2)n1` the Potency was “inactive”.
With `S=C(Nc1ccc(Cl)cc1)NC1CCN(Cc2ccccc2)CC1` the Potency was inconclusive: 22.4 µM [inhibitor, single point].
In the case of `O=c1oc2ccccc2c(Nc2cccc(O)c2)c1[N+](=O)[O-]`, the Potency is reported as inconclusive: 20.6 µM [inhibitor, partial curve, poor fit].
In the case of `Cc1cccc2cc(CN(Cc3ccc4c(c3)OCO4)Cc3nnnn3C3CCCC3)c(=O)[nH]c12`, the Potency is reported as inconclusive: 23.1 µM [inhibitor, single point].
In the case of `CC(=O)Nc1ccc(S(=O)(=O)NCC2CCC(C(=O)NCCCN3CCCC3=O)CC2)cc1` (centres undefined), the Potency is reported as “inactive”.
With `CCOC(=O)c1cnn(-c2sc(C(=O)OCC)c(C)c2C(=O)OCC)c1N` the Potency was “inactive”.
With `CCC(=O)c1ccc(OCC(O)Cn2cnc3ccccc32)cc1` (centres undefined) the Potency was “inactive”.
In the case of `COC(=O)c1ccc(C(=O)OC)c(-n2c(=O)c3ccccc3c3ccccc3c2=O)c1`, the Potency is reported as inconclusive: 1.12 µM [activator, partial curve, poor fit].
With `Cc1cc(C(=O)NC(Cc2c[nH]c3ccccc23)C(=O)O)c(C)o1` (centres undefined) the Potency was “inactive”.
For `NC(=O)c1cnccc1C=Cc1ccccc1`, the Potency was “inactive”.
In the case of `CCn1nc(C)c(NC(=O)/C=C/c2ccc(OC)c(COc3ccc(Cl)cc3Br)c2)c1C`, the Potency is reported as inconclusive: 3.55 µM [inhibitor, partial curve, poor fit].
In the case of `Cc1[nH]c2ccc(C(=O)OC(C)C(=O)NC3(C#N)CCCCC3)cc2c1C` (centres undefined), the Potency is reported as inconclusive: 35.5 µM [inhibitor, single point].
In the case of `CCCc1nn2c(=O)cc(CSCC(=O)Nc3ccccc3OC)nc2s1`, the Potency is reported as inconclusive: 2.82 µM [inhibitor, full curve, poor fit].
For `Cc1cc(C)c2c(-n3cccc3)c(NC(=O)OCc3ccccc3)sc2n1`, the Potency was inconclusive: 1.26 µM [inhibitor, full curve].
In the case of `CCCc1cc(=O)oc2cc(OCC(=O)Nc3cc(C)on3)ccc12`, the Potency is reported as “inactive”.
In the case of `Cc1ccccc1Oc1ncnc2oc(-c3ccccc3)cc12`, the Potency is reported as “inactive”.
For `Cc1csc(=O)n1CCC(=O)OCC(=O)NCc1ccc(Cl)cc1Cl`, the Potency was “inactive”.
With `Cc1c(C(=O)N2CCc3ccccc3C2)oc2ccc(S(=O)(=O)N3CCCCCC3)cc12` the Potency was inconclusive: 11.2 µM [inhibitor, partial curve, poor fit].
For `O=C(CSc1nnc(-c2ccc(O)cc2)o1)Nc1ccc2c(c1)OCCO2`, the Potency was “inactive”.
In the case of `O=CN1N=C(c2ccccc2)CC1c1ccccc1[N+](=O)[O-]` (centres undefined), the Potency is reported as “inactive”.
For `COC(=O)c1cc2occc2n1Cc1ccc(F)cc1Cl`, the Potency was “inactive”.
For `O=C(Nc1cccc(-c2nnc(-c3ccco3)o2)c1)C(c1ccccc1)c1ccccc1`, the Potency was inconclusive: 17.8 µM [inhibitor, partial curve, poor fit].
For `O=C(COc1ccccc1[N+](=O)[O-])Nc1cccc(Cl)c1N1CCOCC1`, the Potency was inconclusive: 11.2 µM [inhibitor, partial curve, poor fit].
For `Cc1nc([N+](=O)[O-])cn1CC(=O)NCCCO`, the Potency was “inactive”.
With `C=CCNC(=O)CSc1n[nH]c(-c2cc(Cl)ccc2OC)n1` the Potency was inconclusive: 35.5 µM [inhibitor, single point].
In the case of `CC(=O)Nc1ccc(C(=O)Nc2nc(-c3cccnc3)cs2)cc1`, the Potency is reported as “inactive”.
In the case of `Cc1ccccc1CSc1nnc([C@@H]2CCCN2)o1`, the Potency is reported as inconclusive: 12.6 µM [activator, partial curve, poor fit].
With `O=C(c1cc(S(=O)(=O)N2CCOCC2)ccc1Cl)N1CCCCC1CO` (centres undefined) the Potency was “inactive”.
For `O=c1[nH]c2c(c(=O)n1-c1ccccc1)CCO2`, the Potency was inconclusive: 0.708 µM [inhibitor, full curve, poor fit].
With `N#Cc1ccc[n+](CC(=O)c2ccc(Cl)cc2)c1` the Potency was inconclusive: 0.398 µM [activator, partial curve, poor fit].
With `CCOc1ccc(N2C(=O)CC(Sc3nccc(C)n3)C2=O)cc1` (centres undefined) the Potency was “inactive”.
With `O=C(N/N=C/c1ccc2cccc(OCc3ccccc3)c2n1)c1ccc(Cl)cc1` the Potency was inconclusive: 35.5 µM [inhibitor, single point].
In the case of `COc1ccc(C(=O)C[n+]2cccc3cc(OC)ccc32)cc1`, the Potency is reported as “inactive”.
For `Cc1ccc(Nc2nc(-c3ccc(S(=O)(=O)N4CCOCC4)cc3)cs2)cc1Cl`, the Potency was inconclusive: 1 µM [inhibitor, full curve].
With `COc1ccc(OCCC(=O)OCC(=O)NC(=O)NC2CCCCC2)cc1` the Potency was inconclusive: 35.5 µM [activator, single point].
For `CCOc1cccc(=NC2CCCCC2)c2c(C)n(C)c(C)c12`, the Potency was inconclusive: 22.4 µM [inhibitor, single point].
In the case of `CCN(C(=O)COC(=O)c1cc(-c2cccc3ccccc23)nc2ccccc12)C1CCS(=O)(=O)C1` (centres undefined), the Potency is reported as “inactive”.
With `CCOC(=O)c1c(NC(=O)COC(=O)CCCOc2ccc(OC)cc2)sc(C(=O)N(C)C)c1C` the Potency was “inactive”.
With `Cc1ccc(NC(=O)C2=CC(c3cccs3)=NS(=O)(=O)N2C)cc1` the Potency was inconclusive: 3.16 µM [inhibitor, single point].
In the case of `CCOC(=O)c1[nH]c2ccc(OC)cc2c1NC(=O)c1cccc(OC)c1`, the Potency is reported as inconclusive: 6.31 µM [inhibitor, full curve, poor fit].
